Results as given in PubChem BioAssay AID1347075 (National Center for Advancing Translational Sciences (NCATS), 2019).
Among all 400,000 compounds or so, about 5,500 (1.4%) were called active. Inconclusive results, whose numbers are uncertain, are shown with a selection of clear calls. Calls come from the whole dose curve; as a rule, active = well fitted cell-killing curve with a large enough effect; inconclusive = small, poorly fitted or top-dose-only effect, or effect the other way; inactive = flat fitted curve, though single readings scatter. A potency beside an inconclusive call is a rough fit, not a confirmed value.

Experiment: qHTS assay for MDR1-selective chemotherapeutics: Primary screen using the parental adenocarcinoma cell KB-3-1; note: nearly all actives have a fitted effect of over 60% in size
Conditions: KB-3-1 viability, CellTiter-Glo ATP luminescence, 72 h; series mostly up to 46.1 µM
Outline: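 Screening of KB-3-1 cells (DMEM, 10% FBS, phenol-red free) ran from lowest to highest compound concentration; after 72 h at 37 °C viability was read luminescently and curves fitted.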
Potency is the fitted concentration of half-maximal effect.

Structure (SMILES) | Potency
CN(C)c1ncnc2c1nnn2C1OC(CO)C(O)C1O (configuration not stated) | inactive
COCCn1c(SCc2nc3sc(C(=O)OC)c(C)c3c(=O)[nH]2)nc2ccccc21 | inactive
CCOCCc1nnc(NC(=O)Cc2ccccc2)s1 | inconclusive: 29.1 µM [rising, single point]
COc1ccc(OC)c(S(=O)(=O)N2CCC(C(=O)Nc3ccccc3)CC2)c1 | inconclusive: 29.1 µM [cytotoxic, single point]
CCOc1ccccc1NC(=O)c1nc[nH]c1C(=O)Nc1ccccc1OCC | inconclusive: 18.4 µM [cytotoxic, single point]
CCC(C)N(C(=O)Cn1cnc2c1c(=O)n(C)c(=O)n2C)C1CCS(=O)(=O)C1 (configuration not stated) | inactive
Cc1cc(C(=O)CSc2nc(N)cc(=O)[nH]2)c(C)n1-c1ccc(OC(F)F)cc1 | inconclusive: 4.61 µM [cytotoxic, full curve, poor fit]
O=C(CSCc1cc(=O)[nH][nH]1)Nc1ccc(F)cc1 | inactive
CN1CCN(c2ccc(CNS(=O)(=O)c3ccccc3)cc2)CC1 | inconclusive: 3.66 µM [rising, partial curve, poor fit]
CCCCCn1c(=O)[nH]c2cc(C(=O)NCCCN(C)Cc3ccccc3)ccc2c1=O | inconclusive: 18.4 µM [cytotoxic, single point]
CCOc1ccc(NC(=O)c2cc(S(=O)(=O)N3CCCCCC3)cn2C)cc1 | inactive
COc1ccccc1C(=O)Nc1ccc(Oc2nnc(-c3ccc(C)cc3)c3ccccc23)cc1 | inactive
O=C(CSc1nnc(Cn2nnc3ccccc32)o1)N(Cc1ccc(F)cc1)c1ccccc1 | active: 5.17 µM
Cc1ccc(OCC(=O)Nc2ccon2)c([N+](=O)[O-])c1 | inactive
C/C(=N\NC(=O)c1ccc(O)cc1O)c1cccnc1 | inactive
O=C(Nc1ccc(S(=O)(=O)NC2CCCCC2)cc1)c1ccc(Br)o1 | inconclusive: 3.66 µM [cytotoxic, partial curve, poor fit]
COc1ccc2c(c1)CC/C(=C/c1ccccn1)C2=O | inactive
O=C(C(=Cc1ccc(F)cc1)C(=O)c1ccccc1)c1ccccc1 | active: 18.4 µM
COc1cc(-c2nnc(SC/C=C/c3ccccc3)n2N)cc(OC)c1OC | inconclusive: 11.6 µM [rising, partial curve]
OC(COc1ccc(F)cc1)CN1CCN(c2ccccc2F)CC1 (configuration not stated) | inactive
CN(C)c1ccc(C=O)cc1 | inconclusive: 18.4 µM [rising, single point]
Clc1cccc(CNc2ccn3nc(-c4ccc(OCc5ccccc5)cc4)cc3n2)c1 | inconclusive: 20.6 µM [cytotoxic, single point]
